{"source": "patent US20140356285A1", "about": "“COMPOSITIONS AND METHODS RELATED TO TISSUE TARGETING” (THE BOARD OF REGENTS OF THE UNIVERSITY OF TEXAS SYSTEM, priority 2011, published 2014)", "note": "These are yes or no findings as the source states them, for the method shown. Some binding calls cover weakened binding; strength is not graded here. For some of these results: Tags and fused reporters may be left off the sequences shown.", "data": [{"target": "T1, human leukocyte proteinase-3 (PR-3) (human, UniProt P24158 28-248)", "T1 construct": "In the ELISAs the PR-3 was bought (Sigma); also called active PR-3; endogenous PR-3", "T1 chain": "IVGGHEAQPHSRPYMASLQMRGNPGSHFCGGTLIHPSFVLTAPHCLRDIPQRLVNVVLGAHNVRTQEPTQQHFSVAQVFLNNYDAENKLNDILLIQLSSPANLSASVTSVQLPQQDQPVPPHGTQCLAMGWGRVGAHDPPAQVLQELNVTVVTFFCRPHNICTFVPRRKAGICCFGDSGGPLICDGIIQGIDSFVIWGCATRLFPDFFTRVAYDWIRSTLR", "test": "affinity capture on monoavidin beads with biotinylated peptides (equimolar admixture of … and …), from a membrane extract of human bone marrow cells", "values": [{"binder": "CPGGGLVHC (cyclized; N-terminal biotin)", "note": "[synthetic … peptide]", "binding": "binds"}]}, {"target": "T2, GST-prohibitin (UniProt P35232)", "T2 sequence (looked up)": "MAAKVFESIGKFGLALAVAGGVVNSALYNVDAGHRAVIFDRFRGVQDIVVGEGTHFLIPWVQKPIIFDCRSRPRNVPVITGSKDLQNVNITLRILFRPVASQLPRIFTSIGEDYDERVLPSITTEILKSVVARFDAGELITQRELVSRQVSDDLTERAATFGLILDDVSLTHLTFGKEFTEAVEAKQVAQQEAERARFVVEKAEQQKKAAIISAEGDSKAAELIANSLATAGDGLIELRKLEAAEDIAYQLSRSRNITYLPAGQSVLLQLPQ", "test": "phage binding to immobilized GST-prohibitin; member of the ANXA2-like subset (n=14)", "values": [{"binder": "AGSGSVL", "note": "[AGSGSVL (SEQ ID NO:18)]", "binding": "binds"}, {"binder": "NLSGRRA", "note": "[NLSGRRA (SEQ ID NO:22)]", "binding": "binds"}, {"binder": "ASGRRES", "note": "[ASGRRES (SEQ ID NO:14)]", "binding": "binds"}, {"binder": "HQKLLVA", "note": "[HOKLLVA (SEQ ID NO:15)]", "binding": "binds"}, {"binder": "SPAWGVR", "note": "[SPAWGVR (SEQ ID NO:21)]", "binding": "binds"}, {"binder": "GRRSRDE", "note": "[GRRSRDE (SEQ ID NO:16)]", "binding": "binds"}, {"binder": "GLVALAR", "note": "[GLVALAR (SEQ ID NO:17)]", "binding": "binds"}, {"binder": "GGRAHGI", "note": "[GGRAHGI (SEQ ID NO:24)]", "binding": "binds"}]}, {"target": "T2, GST-prohibitin", "test": "phage binding assay on immobilized protein", "values": [{"binder": "CKGGRAKDC", "note": "[…-displaying phage]", "binding": "binds"}]}]}
